From the supplement of paper PMC10849652
The other results are listed elsewhere or left out.

Protein sequences, listed by entry. Tags and fused reporters are not part of them. Lines headed by an entry give the natural chain unless they say otherwise; changes in a name come on top.
UniProt Q9UFN0: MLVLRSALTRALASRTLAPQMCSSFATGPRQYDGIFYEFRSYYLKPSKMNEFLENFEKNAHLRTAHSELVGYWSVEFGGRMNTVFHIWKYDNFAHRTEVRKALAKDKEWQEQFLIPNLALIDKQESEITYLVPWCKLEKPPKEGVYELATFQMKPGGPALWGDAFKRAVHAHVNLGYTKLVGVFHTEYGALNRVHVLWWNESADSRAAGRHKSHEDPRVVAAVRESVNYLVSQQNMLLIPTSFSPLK
UniProt Q15843, whole entry, looked up: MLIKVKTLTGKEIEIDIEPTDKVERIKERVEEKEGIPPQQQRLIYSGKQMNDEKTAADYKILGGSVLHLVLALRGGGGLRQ
UniProt Q9P032: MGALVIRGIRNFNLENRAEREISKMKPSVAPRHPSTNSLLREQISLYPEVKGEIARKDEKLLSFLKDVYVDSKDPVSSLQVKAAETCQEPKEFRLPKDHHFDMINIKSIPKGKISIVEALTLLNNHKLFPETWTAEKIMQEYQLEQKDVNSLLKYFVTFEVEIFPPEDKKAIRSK
UniProt Q9BYG3: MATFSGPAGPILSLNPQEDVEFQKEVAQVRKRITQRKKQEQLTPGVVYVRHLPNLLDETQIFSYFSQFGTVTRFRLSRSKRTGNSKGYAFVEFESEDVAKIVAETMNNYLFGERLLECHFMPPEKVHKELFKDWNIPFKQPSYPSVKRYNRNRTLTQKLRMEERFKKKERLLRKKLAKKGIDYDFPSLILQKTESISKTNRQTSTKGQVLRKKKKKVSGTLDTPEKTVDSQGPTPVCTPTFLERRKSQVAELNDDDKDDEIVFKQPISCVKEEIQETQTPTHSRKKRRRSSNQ
UniProt Q9Y221: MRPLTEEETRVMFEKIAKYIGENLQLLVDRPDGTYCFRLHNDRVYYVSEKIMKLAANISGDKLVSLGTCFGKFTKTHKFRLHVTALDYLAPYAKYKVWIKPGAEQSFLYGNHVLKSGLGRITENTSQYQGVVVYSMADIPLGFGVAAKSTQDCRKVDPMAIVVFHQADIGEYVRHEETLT
UniProt Q86X76: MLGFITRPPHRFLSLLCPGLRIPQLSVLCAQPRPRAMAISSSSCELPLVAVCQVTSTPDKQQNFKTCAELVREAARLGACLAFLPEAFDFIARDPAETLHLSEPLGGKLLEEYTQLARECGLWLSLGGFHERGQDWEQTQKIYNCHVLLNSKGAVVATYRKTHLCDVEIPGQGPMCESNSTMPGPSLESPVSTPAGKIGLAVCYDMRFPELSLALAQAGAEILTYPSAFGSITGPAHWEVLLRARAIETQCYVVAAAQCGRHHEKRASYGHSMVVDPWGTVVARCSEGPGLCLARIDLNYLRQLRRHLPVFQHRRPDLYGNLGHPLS
UniProt O95299, whole entry, looked up: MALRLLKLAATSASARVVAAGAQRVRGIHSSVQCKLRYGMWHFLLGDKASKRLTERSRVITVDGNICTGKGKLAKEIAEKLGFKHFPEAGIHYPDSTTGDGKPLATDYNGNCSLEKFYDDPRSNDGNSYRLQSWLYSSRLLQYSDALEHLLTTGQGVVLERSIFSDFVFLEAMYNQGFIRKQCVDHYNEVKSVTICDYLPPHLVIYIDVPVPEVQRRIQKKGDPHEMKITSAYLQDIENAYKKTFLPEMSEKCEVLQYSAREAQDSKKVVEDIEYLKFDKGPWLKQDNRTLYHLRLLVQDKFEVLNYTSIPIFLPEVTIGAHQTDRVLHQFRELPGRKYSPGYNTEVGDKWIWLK
UniProt P08651, whole entry, looked up: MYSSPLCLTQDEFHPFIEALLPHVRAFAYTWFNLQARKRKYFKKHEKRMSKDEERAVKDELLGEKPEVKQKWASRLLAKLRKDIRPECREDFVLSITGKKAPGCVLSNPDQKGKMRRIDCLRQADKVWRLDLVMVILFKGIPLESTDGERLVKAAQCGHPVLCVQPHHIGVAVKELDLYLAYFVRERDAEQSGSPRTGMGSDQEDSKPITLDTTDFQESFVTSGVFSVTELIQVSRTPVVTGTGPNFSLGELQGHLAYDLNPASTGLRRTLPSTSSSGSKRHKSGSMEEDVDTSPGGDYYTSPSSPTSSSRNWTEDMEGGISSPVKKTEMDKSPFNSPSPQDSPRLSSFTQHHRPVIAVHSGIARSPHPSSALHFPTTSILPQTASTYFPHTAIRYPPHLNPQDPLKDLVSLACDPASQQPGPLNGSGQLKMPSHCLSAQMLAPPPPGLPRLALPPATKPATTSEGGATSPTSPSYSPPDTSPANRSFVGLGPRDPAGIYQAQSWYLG
UniProt O00221: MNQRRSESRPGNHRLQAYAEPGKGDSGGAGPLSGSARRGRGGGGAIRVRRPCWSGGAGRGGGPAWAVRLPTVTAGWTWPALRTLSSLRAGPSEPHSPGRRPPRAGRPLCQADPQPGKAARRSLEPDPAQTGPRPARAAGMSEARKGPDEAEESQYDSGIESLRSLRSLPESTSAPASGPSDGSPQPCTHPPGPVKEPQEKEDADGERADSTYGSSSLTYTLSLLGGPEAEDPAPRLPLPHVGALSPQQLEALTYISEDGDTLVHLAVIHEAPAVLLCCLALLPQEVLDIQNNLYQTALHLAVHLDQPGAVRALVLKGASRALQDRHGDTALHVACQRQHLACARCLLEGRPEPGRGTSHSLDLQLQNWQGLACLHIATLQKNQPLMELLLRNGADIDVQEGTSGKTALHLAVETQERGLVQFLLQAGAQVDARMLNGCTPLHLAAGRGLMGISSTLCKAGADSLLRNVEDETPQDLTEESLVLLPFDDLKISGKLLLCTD
UniProt Q6NW34: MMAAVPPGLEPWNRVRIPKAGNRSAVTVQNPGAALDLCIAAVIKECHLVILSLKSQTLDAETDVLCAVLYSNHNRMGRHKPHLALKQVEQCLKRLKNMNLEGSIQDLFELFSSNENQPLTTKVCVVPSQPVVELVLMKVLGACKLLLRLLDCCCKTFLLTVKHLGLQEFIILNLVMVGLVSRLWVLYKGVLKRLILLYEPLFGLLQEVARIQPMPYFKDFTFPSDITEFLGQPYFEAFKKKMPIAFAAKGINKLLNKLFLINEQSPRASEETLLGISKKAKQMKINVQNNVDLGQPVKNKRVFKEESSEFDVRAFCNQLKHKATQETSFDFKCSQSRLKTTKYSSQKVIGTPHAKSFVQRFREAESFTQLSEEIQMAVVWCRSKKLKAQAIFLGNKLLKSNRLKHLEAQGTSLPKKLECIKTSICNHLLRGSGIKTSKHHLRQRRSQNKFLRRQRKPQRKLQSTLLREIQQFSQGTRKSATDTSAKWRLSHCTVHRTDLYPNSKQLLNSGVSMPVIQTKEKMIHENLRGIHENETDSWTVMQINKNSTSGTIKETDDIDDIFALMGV
UniProt Q96IV0: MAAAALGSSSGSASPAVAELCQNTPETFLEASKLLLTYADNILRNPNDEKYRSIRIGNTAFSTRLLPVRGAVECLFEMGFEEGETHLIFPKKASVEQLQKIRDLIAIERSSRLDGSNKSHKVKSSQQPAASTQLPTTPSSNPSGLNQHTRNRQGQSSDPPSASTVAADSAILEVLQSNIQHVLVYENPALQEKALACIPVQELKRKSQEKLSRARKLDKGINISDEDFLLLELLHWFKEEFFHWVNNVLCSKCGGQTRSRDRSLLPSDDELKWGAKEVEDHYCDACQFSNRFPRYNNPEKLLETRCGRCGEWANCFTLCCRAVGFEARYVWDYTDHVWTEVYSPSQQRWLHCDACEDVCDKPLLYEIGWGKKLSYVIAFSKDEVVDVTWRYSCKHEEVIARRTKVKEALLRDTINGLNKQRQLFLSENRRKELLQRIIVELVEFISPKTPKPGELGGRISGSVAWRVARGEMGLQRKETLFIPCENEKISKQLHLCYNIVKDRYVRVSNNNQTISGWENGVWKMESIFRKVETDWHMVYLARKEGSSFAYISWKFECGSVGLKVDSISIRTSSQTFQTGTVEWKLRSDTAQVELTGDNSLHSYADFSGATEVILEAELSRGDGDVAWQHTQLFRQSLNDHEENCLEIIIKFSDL
UniProt Q9Y697: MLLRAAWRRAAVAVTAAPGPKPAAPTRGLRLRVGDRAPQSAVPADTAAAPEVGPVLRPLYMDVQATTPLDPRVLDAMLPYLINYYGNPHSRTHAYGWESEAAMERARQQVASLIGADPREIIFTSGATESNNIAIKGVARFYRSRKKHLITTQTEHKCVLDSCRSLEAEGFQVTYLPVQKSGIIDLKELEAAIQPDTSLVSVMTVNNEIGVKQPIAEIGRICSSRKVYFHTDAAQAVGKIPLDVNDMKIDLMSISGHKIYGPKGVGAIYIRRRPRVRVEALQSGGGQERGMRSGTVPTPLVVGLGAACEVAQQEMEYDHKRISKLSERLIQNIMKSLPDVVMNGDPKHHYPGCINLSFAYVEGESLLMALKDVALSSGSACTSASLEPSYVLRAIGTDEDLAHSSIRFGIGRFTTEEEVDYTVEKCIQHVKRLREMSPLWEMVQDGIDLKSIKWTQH
UniProt O95182, whole entry, looked up: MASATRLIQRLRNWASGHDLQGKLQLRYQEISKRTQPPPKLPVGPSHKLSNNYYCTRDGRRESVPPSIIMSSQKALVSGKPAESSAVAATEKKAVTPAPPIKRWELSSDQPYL
UniProt Q14934: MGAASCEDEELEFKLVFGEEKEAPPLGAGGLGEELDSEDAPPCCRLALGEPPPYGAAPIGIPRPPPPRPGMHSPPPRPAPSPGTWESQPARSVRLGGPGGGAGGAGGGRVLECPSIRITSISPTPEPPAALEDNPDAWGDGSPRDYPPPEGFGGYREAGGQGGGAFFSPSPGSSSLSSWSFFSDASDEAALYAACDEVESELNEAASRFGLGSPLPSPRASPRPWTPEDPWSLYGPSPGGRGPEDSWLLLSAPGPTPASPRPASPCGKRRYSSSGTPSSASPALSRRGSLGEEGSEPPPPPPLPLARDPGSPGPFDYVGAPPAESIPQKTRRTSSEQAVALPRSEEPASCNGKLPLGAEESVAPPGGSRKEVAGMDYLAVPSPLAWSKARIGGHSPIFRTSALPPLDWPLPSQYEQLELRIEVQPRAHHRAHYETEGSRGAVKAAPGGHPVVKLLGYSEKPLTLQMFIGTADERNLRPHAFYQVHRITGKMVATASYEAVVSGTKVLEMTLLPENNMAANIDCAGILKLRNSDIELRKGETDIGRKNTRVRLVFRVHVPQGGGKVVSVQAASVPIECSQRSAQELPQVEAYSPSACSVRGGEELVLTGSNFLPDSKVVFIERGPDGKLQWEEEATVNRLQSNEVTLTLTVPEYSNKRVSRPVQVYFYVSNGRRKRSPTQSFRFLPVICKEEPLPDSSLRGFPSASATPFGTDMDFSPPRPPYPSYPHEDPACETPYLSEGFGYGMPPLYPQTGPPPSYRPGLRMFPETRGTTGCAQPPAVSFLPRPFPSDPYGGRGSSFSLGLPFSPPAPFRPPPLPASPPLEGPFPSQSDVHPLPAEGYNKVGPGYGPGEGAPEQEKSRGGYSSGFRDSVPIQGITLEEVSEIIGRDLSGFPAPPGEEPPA
UniProt Q9NX24: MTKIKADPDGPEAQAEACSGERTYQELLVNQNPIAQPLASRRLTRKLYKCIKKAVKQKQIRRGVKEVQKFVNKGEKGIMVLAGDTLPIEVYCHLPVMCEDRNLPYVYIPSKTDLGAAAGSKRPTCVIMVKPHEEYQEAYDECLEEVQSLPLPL
UniProt Q8WX92, whole entry, looked up: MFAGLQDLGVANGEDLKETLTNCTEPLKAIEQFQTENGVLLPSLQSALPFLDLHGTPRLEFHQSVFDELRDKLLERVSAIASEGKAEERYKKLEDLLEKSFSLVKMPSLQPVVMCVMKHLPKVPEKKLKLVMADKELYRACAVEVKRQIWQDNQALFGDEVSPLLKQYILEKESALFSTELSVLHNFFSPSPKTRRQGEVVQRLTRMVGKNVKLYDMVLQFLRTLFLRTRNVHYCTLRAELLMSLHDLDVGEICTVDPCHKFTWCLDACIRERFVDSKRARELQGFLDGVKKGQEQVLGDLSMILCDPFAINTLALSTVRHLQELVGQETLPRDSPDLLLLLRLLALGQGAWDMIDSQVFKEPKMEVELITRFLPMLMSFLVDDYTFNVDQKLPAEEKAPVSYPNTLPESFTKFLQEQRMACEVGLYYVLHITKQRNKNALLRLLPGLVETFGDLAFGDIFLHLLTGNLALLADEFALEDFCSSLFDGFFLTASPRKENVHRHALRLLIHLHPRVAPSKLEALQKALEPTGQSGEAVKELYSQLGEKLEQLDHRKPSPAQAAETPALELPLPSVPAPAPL
UniProt O75251, whole entry, looked up: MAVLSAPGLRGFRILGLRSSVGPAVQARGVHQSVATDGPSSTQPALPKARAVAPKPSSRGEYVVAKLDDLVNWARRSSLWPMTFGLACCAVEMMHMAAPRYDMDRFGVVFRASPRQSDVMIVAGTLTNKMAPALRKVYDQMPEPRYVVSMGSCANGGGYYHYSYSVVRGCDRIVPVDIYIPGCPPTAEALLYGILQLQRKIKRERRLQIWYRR
UniProt Q9Y6M9, whole entry, looked up: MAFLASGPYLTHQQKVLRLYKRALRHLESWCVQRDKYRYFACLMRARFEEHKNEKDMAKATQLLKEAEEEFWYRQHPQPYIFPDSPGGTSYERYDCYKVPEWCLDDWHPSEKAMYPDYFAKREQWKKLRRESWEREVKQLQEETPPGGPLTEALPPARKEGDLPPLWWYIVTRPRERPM

The targets below were run with Cn1cc(CNCC2CCN(c3ncc(C(=O)NO)cn3)CC2)c2ccccc21 [quisinostat] (assay: log2 fold change, soluble protein after heating vs DMSO (PISA); higher = thermal stabilisation; K562 lysate, 10 uM; active = over 0.2 and 3.5 SD of the protein, either way, in both replicates (recomputed)).
How it was run: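 Soluble protein was defined as the supernatant remaining after 21,000xg for 90 min, following pooling of heated aliquots and adjustment to 0.5% NP-40 at 4°C. Before that, crude K562 extract at 1 mg/mL protein in PBS pH 7.4 with 1 mM MgCl2 was treated with 10 μM compound for 30 min and heated for 3 min across 48°C-58°C. Quantification used TMTpro 16plex LC-MS/MS with channel sums equalised, and values are log-two fold changes in thermal stability relative to solvent controls from duplicates.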

log2 fold change, inactive:
NIPSNAP3A (UniProt Q9UFN0) -0.053, NEDD8 (UniProt Q15843) 0.034, NDUFAF4 (UniProt Q9P032) -0.03, NDUFV1 (UniProt P49821) 0.054, NEU1 (UniProt Q99519) -0.011, NDRG2 (UniProt Q9UN36) -0.03, NDUFAB1 (UniProt O14561) 0.186, NIFK (UniProt Q9BYG3) -0.042, NFU1 (UniProt Q9UMS0) 0.036, NDC80 (UniProt O14777) -0.022, NEDD1 isoform 3 (UniProt Q8NHV4) 0.05, NIP7 (UniProt Q9Y221) 0.026, NIT1 (UniProt Q86X76) -0.064, NDUFA10 (UniProt O95299) 0.039, NFIC (UniProt P08651) -0.072, NLRP2 (UniProt Q9NX02) -0.031, NEDD4 isoform 4 (UniProt P46934) 0.05, NDRG3 (UniProt Q9UGV2) 0.004, NFKBIE (UniProt O00221) -0.004, NEPRO (UniProt Q6NW34) -0.095, NDUFA11 (UniProt Q86Y39) 0.032, NGLY1 (UniProt Q96IV0) -0.104, NFS1 (UniProt Q9Y697) 0.01, NDUFA7 (UniProt O95182) -0.026, NFATC4 isoform 2 (UniProt Q14934) -0.07, NHP2 (UniProt Q9NX24) 0.035, NFATC3 (UniProt Q12968) -0.096, NFAT5 isoform 5 (UniProt O94916) -0.172, NGRN (UniProt Q9NPE2) -0.031, NDUFA6 (UniProt P56556) -0.128, NF2 (UniProt P35240) -0.014, NELFB isoform 2 (UniProt Q8WX92) -0.02, NDUFS7 (UniProt O75251) -0.014, NFX1 (UniProt Q12986) -0.038, NDUFB9 (UniProt Q9Y6M9) 0.064, NDUFB8 (UniProt O95169) 0, NF1 (UniProt P21359) -0.059, NIPSNAP2 (UniProt O75323) -0.01, NEK7 (UniProt Q8TDX7) -0.018, NKIRAS2 (UniProt Q9NYR9) -0.18
